# Source: the supplement of paper PMC8728848
# Some of the results follow.
# B1: PX9937I-bfa-538-26-538 (Bacteroides fragilis) (protein)
# chain: DKLDLSPIDYYGSGSYWKTEAQATAYIDGIHKHLRDAAWQHTITFGELRGGRFITGASSDGMGVSNGDIILQNFDETHTGVSKFGDLFGRITNLNLFIARVTDATYLSDEMKNFYLGEVYGLRAFYYFDLYRIYGGVPLRLTADVVEGVIDPNKLYMARSTPKEVMTQIKSDLNKSMEYFGNMNDFDPYKRGKKVYWSKAATECLMGEVYLWTSKVTTGDDVANPADLTIAKTHLESVLNNYNLKMLDDFSQVFNAKNKANDEIIFAIRFLEGEATNSNGTFTYNVGTGSTKNRYQANGEVFGDALDIQNTGNQTYEYNKAVYQNFDDADTRKEATFIASYNKDGKTGELSLYGTHVRKNIGYVNAQGARVYCGDYIFYRLPWVYLTLAEIANMEGDNAAVAKYINLVRKRAYGNAWDETLYAYPETADFTTNELAILHEKDKEFIQEGQRWWDLRRMTLTKGGTPLVFCKEGSLLGDAPILNKSTEAHKLLWPIEKTMLNKDPALEQTPGYK
# Experiments:
# Assay in all cases: glycan array binding signal (z-score within array); higher = stronger binding
# Conditions in all cases: glycan notation: IUPAC condensed, linker removed
# Glc(b1-6)Glc = target: Glc(b1-6)Glc
# How it was run: (§1)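 Glycan array binding is given as a within-array Z-score, which can be read as non-binding when negative. The arrays, 3228 of them, came from the Consortium for Functional Glycomics database and were retained only where the protein sequence was available. Z-scores were averaged across arrays of the same protein sequence at different concentrations or buffers and across linkers.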
# GlcA(b1-3)Gal = target: GlcA(b1-3)Gal
# How it was run: as §1
# GlcA(b1-3)GlcNAc = target: GlcA(b1-3)GlcNAc
# How it was run: as §1
# GlcA(b1-6)Gal = target: GlcA(b1-6)Gal
# How it was run: as §1
# [1] = target: GlcA3S(b1-3)Gal(b1-4)GlcNAc(b1-2)Man
# How it was run: as §1
# [2] = target: GlcA3S(b1-3)Gal(b1-4)GlcNAc(b1-3)Gal(b1-4)Glc
# How it was run: as §1
# [3] = target: GlcNAc(a1-3)Gal(b1-4)GlcNAc
# How it was run: as §1
# [4] = target: GlcNAc(a1-4)Gal(b1-3)GlcNAc
# How it was run: as §1
# [5] = target: GlcNAc(a1-4)Gal(b1-4)GalNAc
# How it was run: as §1
# [6] = target: GlcNAc(a1-4)Gal(b1-4)GlcNAc
# How it was run: as §1
# [7] = target: GlcNAc(a1-4)Gal(b1-4)GlcNAc(b1-3)Gal(b1-4)Glc
# How it was run: as §1
# [8] = target: GlcNAc(a1-4)Gal(b1-4)GlcNAc(b1-3)Gal(b1-4)GlcNAc
# How it was run: as §1
# [9] = target: GlcNAc(a1-4)Gal(b1-4)GlcNAc(b1-3)Gal(b1-4)GlcNAc(b1-3)Gal(b1-4)GlcNAc
# How it was run: as §1
# [10] = target: GlcNAc(a1-4)Gal(b1-4)GlcNAc(b1-3)Gal(b1-4)[Fuc(a1-3)]GlcNAc(b1-3)Gal(b1-4)[Fuc(a1-3)]GlcNAc
# How it was run: as §1
# [11] = target: GlcNAc(a1-6)Gal(b1-4)GlcNAc
# How it was run: as §1
# [12] = target: GlcNAc(b1-2)Gal(b1-3)GalNAc
# How it was run: as §1
# [13] = target: GlcNAc(b1-2)Man(a1-3)[GlcNAc(b1-2)Man(a1-6)]Man(b1-4)GlcNAc(b1-4)GlcNAc
# How it was run: as §1
# [14] = target: GlcNAc(b1-2)Man(a1-3)[GlcNAc(b1-2)Man(a1-6)]Man(b1-4)GlcNAc(b1-4)[Fuc(a1-6)]GlcNAc
# How it was run: as §1
# [15] = target: GlcNAc(b1-2)Man(a1-3)[GlcNAc(b1-4)][GlcNAc(b1-2)Man(a1-6)]Man(b1-4)GlcNAc(b1-4)GlcNAc
# How it was run: as §1
# [16] = target: GlcNAc(b1-2)Man(a1-3)[GlcNAc(b1-4)][GlcNAc(b1-2)Man(a1-6)]Man(b1-4)GlcNAc(b1-4)[Fuc(a1-6)]GlcNAc
# How it was run: as §1
# [17] = target: GlcNAc(b1-2)[GlcNAc(b1-4)]Man(a1-3)[GlcNAc(b1-2)Man(a1-6)]Man(b1-4)GlcNAc(b1-4)GlcNAc
# How it was run: as §1
# [18] = target: GlcNAc(b1-2)[GlcNAc(b1-4)]Man(a1-3)[GlcNAc(b1-4)][GlcNAc(b1-2)Man(a1-6)]Man(b1-4)GlcNAc(b1-4)GlcNAc
# How it was run: as §1
binder,measurement,setting,value
B1,glycan array binding signal (z-score),Glc(b1-6)Glc,0.338
same,glycan array binding signal (z-score),GlcA(b1-3)Gal,-0.8
same,glycan array binding signal (z-score),GlcA(b1-3)GlcNAc,0.211
same,glycan array binding signal (z-score),GlcA(b1-6)Gal,-0.593
same,glycan array binding signal (z-score),[1],-0.243
same,glycan array binding signal (z-score),[2],0.018
same,glycan array binding signal (z-score),[3],0.271
same,glycan array binding signal (z-score),[4],-0.566
same,glycan array binding signal (z-score),[5],-0.153
same,glycan array binding signal (z-score),[6],-0.808
same,glycan array binding signal (z-score),[7],-0.307
same,glycan array binding signal (z-score),[8],-1.24
same,glycan array binding signal (z-score),[9],-0.238
same,glycan array binding signal (z-score),[10],0.808
same,glycan array binding signal (z-score),[11],-1.13
same,glycan array binding signal (z-score),[12],-0.67
same,glycan array binding signal (z-score),[13],-1.11
same,glycan array binding signal (z-score),[14],0.095
same,glycan array binding signal (z-score),[15],1.33
same,glycan array binding signal (z-score),[16],-0.358
same,glycan array binding signal (z-score),[17],-0.678
same,glycan array binding signal (z-score),[18],-0.773

# Pulled one by one from the list above (2):
binder,measurement,setting,value
B1,glycan array binding signal (z-score),GlcA(b1-6)Gal,-0.593
same,glycan array binding signal (z-score),[5],-0.153
